PubChem BioAssay AID2685 (National Center for Advancing Translational Sciences (NCATS), 2010)
“And” between values parts separate entries of the source, which are not always exact repeats. Identical values can stand only once. Some of the results follow. The main result of the screen is listed elsewhere. These columns were measured beside it and carry no call. Compounds called inactive in the main read-out are mostly missing here. Potencies come from curve fits of mixed quality, noted in brackets.

Assay: qHTS Assay for Lipid Storage Modulators in Drosophila S3 Cells;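 on cell number change: cells counted by Cell Tracker Red CMTPX staining in the red channel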
Settings: BODIPY lipid droplet fluorescence, 18-24 h; for cell number change: measured here: cell count max response, cells fed with added oleic acid
How it was run: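 Laser-scanning cytometry quantifies lipid droplet accumulation (500–530 nm total intensity; droplet/cell object ratio) in oleic acid-fed (400 uM added) Drosophila S3 cells treated with a concentration series. 20 uM Triacsin C defined 100% inhibition.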

[1] = measured here: cell number channel AC50, cells fed with added oleic acid
[2] = measured here: lipid fluorescence (Fed channel) AC50, cells fed with added oleic acid

Structure (SMILES)	AC50 [1]	AC50 [2]	cell number change
CCOC(=O)c1cnn(-c2cc(C)c3ccccc3n2)c1N	0.146 µM [rising, partial curve]	0.092 µM [rising, full curve, poor fit]	–
Cc1ccc(NC(=O)Cn2c(=O)n(CCCC(=O)NCc3ccco3)c(=O)c3ccccc32)cc1	–	0.58 µM [rising, full curve, poor fit]	-5.32%
CC(C(=O)N1CCN(C(=O)c2ccco2)CC1)N1C(=O)NC2(CCCCC2C)C1=O (stereo unspecified)	6.51 µM [rising, single point]	6.51 µM [rising, partial curve, poor fit]	-5.6%
CS(=O)(=O)Cc1cccc(C(=O)NN(c2ccccc2)c2ccccc2)c1	–	–	17.8%
NC1=NC(=O)/C(=C\c2ccc(-c3ccc(Cl)cc3)o2)S1	–	13 µM [falling, partial curve]	-9.88%
Nc1ccc(S(=O)(=O)Nc2nc(-c3ccccc3)cc(-c3ccccc3)n2)cc1	–	–	5.62%
CCN1CCN(C(c2cccnc2)c2c(NC(=O)c3ccco3)sc(C)c2C)CC1 (stereo unspecified)	–	7.31 µM [falling, partial curve]	–
COc1cccc(CNCCSc2nnnn2C)c1	–	2.06 µM [falling, full curve, poor fit]	-19.1%
N#CCCCSc1nnnn1-c1cccc(Cl)c1	–	–	-9.33%
CCN(C(=O)CSc1nnc(-c2ccc(C)cc2)n1N)c1c(N)n(Cc2ccccc2)c(=O)[nH]c1=O	–	–	-18.1%
O=C(CSc1nnc(Cc2cccs2)n1-c1ccc(Cl)cc1)NCc1ccc2c(c1)OCO2	–	–	8.04%
CCOC(=O)c1cnc2sc3c(n2c1=O)CCCC3	29.1 µM [falling, single point]	–	-30.5%
CCOCCOC(=O)C(C)Oc1ccc(Oc2nc(Cl)ccc2Cl)cc1 (stereo unspecified)	–	23.1 µM [rising, single point]	67.5%
O=C1COc2ccc(C(=O)COC(=O)c3nc(Cl)ccc3Cl)cc2N1	–	29.1 µM [falling, single point]	-6.4%
Cc1ccc(Cl)cc1N1CCN(C(=O)CSc2nnc3n2C(C)(C)Cc2ccccc2-3)CC1	–	14.6 µM [falling, partial curve, poor fit]	-28.4%
Cc1ccc([N+](=O)[O-])cc1NC(=O)c1cccs1	0.651 µM [falling, single point]	0.651 µM [falling, single point]	3.35%
O=C(COC(=O)c1nc(Cl)ccc1Cl)c1ccc[nH]1	–	0.092 µM [falling, full curve, poor fit]	-25%
Cc1cc(Cl)c(S(=O)(=O)NC(C(=O)O)C(C)C)cc1OCC(=O)NC1CCCCC1 (stereo unspecified)	–	–	28.7%
C[C@]12CCC(=O)C=C1CC[C@@H]1[C@@H]2[C@@H](O)C[C@@]2(C)[C@H]1CC[C@]2(O)C(=O)COC(=O)CCC(=O)O	0.82 µM [falling, full curve, poor fit]	4.11 µM [rising, single point]	-29.4%

Structure (SMILES)	AC50 [1]	AC50 [2]	cell number change
Cc1cccc(N2CCN(S(=O)(=O)c3ccc4c(c3)CCCN4C(=O)C3CCC3)CC2)c1C	–	0.731 µM [rising, single point]	25.7%
O=C(COC(=O)c1cccc([N+](=O)[O-])c1)Nc1ccc(Cl)cn1	–	–	13.1%
Cc1cccc(-n2c(C)nc3cc(C(=O)NCc4ccc5c(c4)OCO5)ccc32)c1	–	20.6 µM [rising, single point]	0.199%
O=C(Cn1[nH]c(=O)c2ccccc2c1=O)N1CCN(S(=O)(=O)c2ccc(Cl)cc2)CC1	0.00461 µM [falling, full curve, poor fit]	–	19.2%
Cc1nc(NC(=O)c2ccc(Br)o2)sc1C	–	16.4 µM [rising, partial curve]	-6.31%
O=C(c1ccc(Cl)c(S(=O)(=O)N2CCOCC2)c1)N(Cc1ccco1)Cc1cccs1	4.61 µM [rising, partial curve]	–	68.5%
CC1=C(C(=O)Nc2ccc(CC(=O)NCc3ccc(OC(C)C)cc3)cc2)SCCO1	7.31 µM [falling, single point]	–	-16.8%
COc1ccc2cc3c(N)nn(C(=O)Cc4c[nH]c5ccccc45)c3nc2c1	29.1 µM [falling, single point]	1.16 µM [rising, partial curve, poor fit]	-47.9%
O=C(c1ccco1)N(c1ccccn1)c1ccccn1	3.66 µM [falling, full curve]	14.6 µM [falling, partial curve, poor fit]	-33.3%
CCOc1ccc(C(=O)NCC(=O)N2CCc3ccccc3C2)cc1OCC	–	0.058 µM [falling, full curve, poor fit]	-0.0415%
Cc1nn(-c2nc3ccccc3n2Cc2ccccc2)c2c1C(=O)CC(C)(C)C2	–	7.31 µM [rising, single point]	-16.5%
CCCc1nnc(N2C(=O)c3cccc4cccc(c34)C2=O)s1	–	23.1 µM [rising, partial curve]	–
Cc1onc(-c2ccccc2)c1C(=O)N/N=C/c1cc2c(cc1Br)OCO2	3.26 µM [rising, full curve]	1.16 µM [rising, full curve]	38.6%
CC(C)N1C/C(=C/c2ccsc2)C(=O)/C(=C/c2ccsc2)C1	–	13 µM [falling, partial curve]	–
CCNc1nc(SCCOc2ccccc2)nc(N(C)C)n1	7.31 µM [rising, partial curve]	14.6 µM [rising, partial curve]	313%
CC(=O)Nc1ccc(C(=O)CSc2nc3ccc(C)cc3[nH]2)cc1	25.9 µM [falling, single point]	29.1 µM [rising, single point]	-50%
CCOC(=O)c1nnn(-c2nonc2N)c1-c1ccc(Br)cc1	–	32.6 µM [falling, single point]	-24.6%
Cc1[nH]c2ccc(-c3n[nH]c(=S)n3C)cc2c1C	–	0.092 µM [rising, full curve, poor fit]	-14.3%
CC(C)(C)c1ccc(-c2n[nH]c(=S)n2Cc2ccccc2)cc1	–	–	-12.5%

Structure (SMILES)	AC50 [1]	AC50 [2]	cell number change
O=C(CSC1=Nc2ccccc2C2=NC(CC(=O)NCc3ccco3)C(=O)N12)NCc1ccco1 (stereo unspecified)	–	0.58 µM [rising, single point]	–
CC(=O)c1cccc(N2C(=NC(=O)C3CCCCC3)SC3CS(=O)(=O)CC32)c1 (stereo unspecified)	–	0.461 µM [falling, full curve]	-19.8%
Cc1sc2nc(SCC(=O)N(C)c3ccccc3)n(C)c(=O)c2c1C	–	0.146 µM [falling, full curve]	-20%
COC(=O)c1cc(S(=O)(=O)N2CCN(c3ccc(C(C)=O)cc3)CC2)cn1C	–	29.1 µM [rising, single point]	–
COC(=O)Cc1ccc(N(Cc2ccccc2F)S(=O)(=O)c2ccc(Br)cc2)cc1	–	6.51 µM [rising, single point]	0.989%
COc1ccc(/C=C(\NC(=O)c2cccs2)C(=O)Nc2ccccc2C)cc1OC	1.03 µM [falling, full curve]	0.731 µM [falling, full curve]	-73.8%
CC(=O)c1c(C)[nH]c(C(=O)OCc2cccc(C)c2)c1C	0.00411 µM [rising, full curve, poor fit]	–	0.855%
COc1ccc(-c2cc(-c3ccccc3)nc(SCC(=O)Nc3ncc(C)s3)c2C#N)cc1	0.259 µM [rising, partial curve, poor fit]	0.13 µM [rising, full curve]	21.2%
Cc1ccc(Cn2nnc3c(=O)[nH]c(C4CCN(S(=O)(=O)/C=C/c5ccccc5)CC4)nc32)cc1	–	–	5.65%
Cc1ccc(S(=O)(=O)N2CCCCC2)cc1C(=O)NCCCN1CCOCC1	–	–	16.2%
O=C(Nc1cccc(Cl)c1)Nc1cccc(C(=O)O)c1	29.1 µM [falling, single point]	9.2 µM [falling, single point]	-40.3%
CC(C)(C)NC[C@H](O)COc1nsnc1N1CCOCC1	32.6 µM [falling, single point]	29.1 µM [falling, single point] and 651 nM [falling, full curve, poor fit]	-33.1% and 17.5%
Cc1ccc(/C=C2\SC(=S)N(CCC(=O)N3CCCCC3)C2=O)cc1	–	–	-17.9%
Cc1cc(C)nc(N2CCN(c3ccc(F)cc3)CC2)n1	–	29.1 µM [rising, single point]	30.2%
CCOc1cccc2sc(N(CCCN(C)C)C(=O)c3ccc(S(=O)(=O)N(C)CC4CCCO4)cc3)nc12 (stereo unspecified)	18.4 µM [falling, single point]	0.58 µM [rising, single point]	-39.9%
CC(C)c1ccc(/C=N/n2c(COc3ccccc3)n[nH]c2=S)cc1	–	13 µM [falling, partial curve, poor fit]	-9.72%
COC(=O)c1ccc(NC(=O)COc2ccc(S(=O)(=O)N3CCCCC3)cc2)cc1	0.517 µM [falling, full curve]	0.146 µM [falling, full curve]	-31.4%
Cc1ccc(S(=O)(=O)c2cn(C)c3cc(N4CCN(C)CC4)c(F)cc3c2=O)cc1	–	4.11 µM [falling, single point]	20.2%
CCCCn1c(=O)[nH]c(=O)c2c1nc(-c1ccccc1F)n2Cc1ccccc1	–	1.64 µM [falling, partial curve]	–
